Sequences of proteins named here, by UniProt entry; tags and fusion partners are left off. A change or cut given only in a name is not applied to a line headed by its entry.
UniProt P05556: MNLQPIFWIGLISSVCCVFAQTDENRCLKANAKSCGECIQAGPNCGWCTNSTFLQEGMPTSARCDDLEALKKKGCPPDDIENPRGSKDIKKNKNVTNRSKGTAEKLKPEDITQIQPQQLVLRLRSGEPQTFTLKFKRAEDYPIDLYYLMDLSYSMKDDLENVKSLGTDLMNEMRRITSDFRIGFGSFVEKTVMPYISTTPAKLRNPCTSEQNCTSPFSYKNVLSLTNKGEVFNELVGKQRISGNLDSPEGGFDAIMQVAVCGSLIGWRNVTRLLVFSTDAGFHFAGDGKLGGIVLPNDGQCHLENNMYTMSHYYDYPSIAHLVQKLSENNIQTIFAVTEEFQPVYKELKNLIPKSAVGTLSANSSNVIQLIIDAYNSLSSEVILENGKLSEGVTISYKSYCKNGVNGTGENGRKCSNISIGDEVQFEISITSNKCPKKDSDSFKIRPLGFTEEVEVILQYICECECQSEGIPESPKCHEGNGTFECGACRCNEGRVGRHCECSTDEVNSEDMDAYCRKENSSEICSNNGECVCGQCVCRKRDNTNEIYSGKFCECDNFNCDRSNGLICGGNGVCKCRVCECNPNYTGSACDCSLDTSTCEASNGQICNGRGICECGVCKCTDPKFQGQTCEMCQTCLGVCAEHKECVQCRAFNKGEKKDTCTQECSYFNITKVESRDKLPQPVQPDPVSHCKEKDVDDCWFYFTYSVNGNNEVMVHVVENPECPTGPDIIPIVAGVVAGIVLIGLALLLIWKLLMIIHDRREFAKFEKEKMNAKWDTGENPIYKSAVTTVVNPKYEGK

In article PMC9074275:

Biological target: T1, FLAG-tagged Tspan7 (Tetraspanin-7) (human) (UniProt P41732)
T1 sequence: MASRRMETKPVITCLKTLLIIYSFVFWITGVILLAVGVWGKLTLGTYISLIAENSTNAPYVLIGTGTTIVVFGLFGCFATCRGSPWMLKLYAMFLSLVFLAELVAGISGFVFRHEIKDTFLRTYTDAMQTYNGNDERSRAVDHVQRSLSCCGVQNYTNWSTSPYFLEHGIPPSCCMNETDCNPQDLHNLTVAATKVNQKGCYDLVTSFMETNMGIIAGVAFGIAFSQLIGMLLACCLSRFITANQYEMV
Assay: affinity purification with mass spectrometry; Anti-Flag M2 agarose beads on lysates of U2OS cells expressing FLAG-tagged Tspan7 or control constructs; proteins interacting with Tspan7 identified by mass spectrometry

With “integrin β1 (from UniProt P05556 21-798) (receptor)” as the substance, how does the binding read?
The binding was “binds”.

Results are given in words; binding and its absence hold for the method and conditions named. Binding seen in cells or lysates may run through a third protein. A yes stands for co-enrichment or nearness to the bait. Other partners may have been found. Tags and fused reporters may be left off the sequences shown.
